# Test results as given in PubChem BioAssay AID248 (DTP/NCI, 2004).
# The list is a part of this screen's results and no random one: it is rich in T/C values a quarter to a half above the control, in often repeated tests (any T/C) and in doses without a T/C. Further doses and runs are listed elsewhere. T/C: endpoint of the treated group in % of that of the vehicle group. Some entries give survivors of the animals treated and no T/C: the source holds a T/C of zero for them, seemingly a mark for toxic or unscored doses. Some survivor counts are full or nearly so, which does not show that the dose was tolerated: the source hardly ever lists a survival T/C far under the control, and the zero likely stands for such cases as well. Survivors were counted at the toxicity check, usually on the fifth day, unless a day is given; later deaths do not show. Schedules are NCI's codes, taken here to give the interval after Q, in days (D) or hours (H), and the number of doses after X. Some molecules as drawn cover several salts, stereoisomers or complexes of the source; a dose is that of the sample tested. Some schedule codes hold Z or #, which are not explained here. Signs of the kind (2×) count equal records among those shown. Some doses were run more than once; the results are listed from low to high. Where survival is the endpoint, this PubChem deposit counts one and a half times the control or more as active, and values a quarter to a half above the control carry no call in these data; other NCI protocols may use other cut-offs.
# Tested on: L1210 leukemia ip in BDF1 mice, survival T/C
# Test: NCI In Vivo Anticancer Drug Screen. Data for tumor model L1210 Leukemia (intraperitoneal) in B6D2F1 (BDF1) mice
# Details: T/C endpoint: mean survival time, higher T/C = longer survival
# [1] = dose: 300.0 mg/kg/injection, schedule: Q01DX001 (ip), vehicle: other
# [2] = dose: 400.0 mg/kg/injection, schedule: Q04DX003 (ip), vehicle: saline with Tween-80
# [3] = dose: 200.0 mg/kg/injection, schedule: Q04DX003 (ip), vehicle: Klucel (hydroxypropylcellulose) (HPC)
# [4] = dose: 200.0 mg/kg/injection, schedule: Q04DX003 (ip), vehicle: saline
# [5] = dose: 400.0 mg/kg/injection, schedule: Q01DX001 (ip), vehicle: saline
# [6] = dose: 400.0 mg/kg/injection, schedule: Q04DX003 (ip), vehicle: saline
# [7] = dose: 200.0 mg/kg/injection, schedule: Q01DX009 (ip), vehicle: saline with Tween-80
# [8] = dose: 400.0 mg/kg/injection, schedule: Q01DX009 (ip), vehicle: saline with Tween-80
# [9] = dose: 100.0 mg/kg/injection, schedule: Q04DX002 (ip), vehicle: Klucel (hydroxypropylcellulose) (HPC)
# [10] = dose: 200.0 mg/kg/injection, schedule: Q04DX002 (ip), vehicle: Klucel (hydroxypropylcellulose) (HPC)
# [11] = dose: 400.0 mg/kg/injection, schedule: Q04DX002 (ip), vehicle: Klucel (hydroxypropylcellulose) (HPC)
structure (smiles),measurement,setting,value
CCOP(=O)(OCC)C1=C(P(=O)(OCC)OCC)C(F)(F)C1(F)F,survivor count,"dose: 150.0 mg/kg/injection, schedule: Q01DX001 (ip), vehicle: other",0 of 6
same,survivor count,[1],0 of 6
[O]=[Sn]([c]1ccccc1)[c]1ccccc1,survivor count,"dose: 25.6 mg/kg/injection, schedule: Q04DX002 (ip), vehicle: saline with Tween-80",0 of 3
same,survivor count,"dose: 160.0 mg/kg/injection, schedule: Q04DX002 (ip), vehicle: saline with Tween-80",0 of 3
same,survivor count,"dose: 400.0 mg/kg/injection, schedule: Q04DX002 (ip), vehicle: saline with Tween-80",0 of 3
CC(=O)NCc1cc2c3c(c1)CCCN3CCC2,survivor count,[2],4 of 6
S=C(S)Nc1cccc2ccccc12,survivor count,"dose: 100.0 mg/kg/injection, schedule: Q04DX003 (ip), vehicle: Klucel (hydroxypropylcellulose) (HPC)",4 of 6
same,survivor count,[3],2 of 6
same,survivor count,"dose: 400.0 mg/kg/injection, schedule: Q04DX003 (ip), vehicle: Klucel (hydroxypropylcellulose) (HPC)",4 of 6
Fc1ccc(/C=N\N=C(N/N=C/c2ccc(F)cc2)N/N=C/c2ccc(F)cc2)cc1,survivor count,"dose: 480.0 mg/kg/injection, schedule: Q01DX Z (oral), vehicle: carboxymethylcellulose (CMC)",3 of 6
same,survivor count,"dose: 2400.0 mg/kg/injection, schedule: Q01DX Z (ip), vehicle: carboxymethylcellulose (CMC)",0 of 60
same,survivor count,"dose: 4800.0 mg/kg/injection, schedule: Q01DX Z (ip), vehicle: carboxymethylcellulose (CMC)",0 of 60
Oc1cccnc1CN1CCCCC1,survivor count,[4],0 of 6
CCN1/C(=C/C(C)=C/c2[se]c3ccccc3[n+]2CC)[Se]c2ccc(OC)cc21,survivor count,"dose: 80.0 mg/kg/injection, schedule: Q01DX001 (ip), vehicle: saline",0 of 6
same,survivor count,"dose: 100.0 mg/kg/injection, schedule: Q01DX001 (ip), vehicle: saline",0 of 6
same,survivor count,"dose: 200.0 mg/kg/injection, schedule: Q01DX001 (ip), vehicle: saline",0 of 6
same,survivor count,[5],0 of 6
Cc1cc[n+](CC(=O)CCc2ccc(C(=O)C[n+]3ccc(C)cc3)cc2)cc1,survivor count,"dose: 100.0 mg/kg/injection, schedule: Q04DX003 (ip), vehicle: saline",0 of 6
same,survivor count,[4],0 of 6
same,survivor count,[6],0 of 6
CC(=O)c1cc(O)ccc1O,survivor count,[7],3 of 6
O=C(O)CCC(=O)O,survivor count,"dose: 62.5 mg/kg/injection, schedule: Q01DX015 (ip), vehicle: water",6 of 6
same,survivor count,"dose: 250.0 mg/kg/injection, schedule: Q01DX015 (ip), vehicle: water",2 of 6
same,survivor count,"dose: 400.0 mg/kg/injection, schedule: Q01DX009 (ip), vehicle: saline",1 of 6 and 3 of 6
same,survivor count,"dose: 500.0 mg/kg/injection, schedule: Q01DX001 (ip), vehicle: water",3 of 6
same,survivor count,"dose: 500.0 mg/kg/injection, schedule: Q01DX015 (ip), vehicle: water",3 of 6
same,survivor count,"dose: 750.0 mg/kg/injection, schedule: Q01DX001 (ip), vehicle: water",0 of 6 and 3 of 6
same,survivor count,"dose: 1000.0 mg/kg/injection, schedule: Q01DX001 (ip), vehicle: water",0 of 6 (2×)
CNC=O,T/C,"dose: 88.25 mg/kg/injection, schedule: Q01DX Z (ip), vehicle: carboxymethylcellulose (CMC)",125 % of control
same,T/C,"dose: 250.0 mg/kg/injection, schedule: Q01DX Z (ip), vehicle: saline",136 % of control
same,T/C,"dose: 300.0 mg/kg/injection, schedule: Q01DX Z (ip), vehicle: saline",135 % of control
same,T/C,"dose: 500.0 mg/kg/injection, schedule: Q01DX015 (ip), vehicle: saline",144 % of control
same,T/C,"dose: 500.0 mg/kg/injection, schedule: Q01DX Z (ip), vehicle: saline",125 % of control
same,T/C,"dose: 600.0 mg/kg/injection, schedule: Q01DX009 (ip), vehicle: saline",146 % of control
CC1CCCCC12OCCO2 (configuration not stated),survivor count,[8],3 of 6
CC(C)(C)C1CCCC(NC(=O)N(CCCl)N=O)C1 (configuration not stated),T/C,"dose: 23.0 mg/kg/injection, schedule: Q01DX001 (ip), vehicle: other",136 % of control
Cc1ccccc1NC(=O)N(C)N,survivor count,"dose: 150.0 mg/kg/injection, schedule: Q01DX001 (ip), vehicle: carboxymethylcellulose (CMC)",3 of 6
same,survivor count,"dose: 300.0 mg/kg/injection, schedule: Q01DX001 (ip), vehicle: carboxymethylcellulose (CMC)",1 of 6
c1ccc2c(c1)CNCc1ccccc1-2,survivor count,[4],0 of 6
same,survivor count,[6],0 of 6
N=C(N)SCc1ccc(Cl)cc1N,survivor count,[9],2 of 3
same,survivor count,[10],0 of 3
same,survivor count,[11],0 of 3
O=C(CC(O)(c1ccccc1)c1ccccc1)Nc1ccccn1,survivor count,"dose: 400.0 mg/kg/injection, schedule: Q01DX001 (ip), vehicle: other",4 of 4
CC(Cl)CN(CC(C)Cl)C(=O)OCC(NC(=O)OCc1ccccc1)C(=O)OCc1ccccc1 (configuration not stated),survivor count,"dose: 200.0 mg/kg/injection, schedule: Q01DX009 (ip), vehicle: Klucel (hydroxypropylcellulose) (HPC)",6 of 6
same,survivor count,"dose: 400.0 mg/kg/injection, schedule: Q01DX009 (ip), vehicle: Klucel (hydroxypropylcellulose) (HPC)",6 of 6
C=CCC1(CCCCC)C(=O)NC(=S)NC1=O,survivor count,"dose: 300.0 mg/kg/injection, schedule: Q01DX001 (ip), vehicle: saline",3 of 6
CCOC(=O)N/N=C\c1cc(OC)c(OC)c(OC)c1,survivor count,[7],3 of 6
same,survivor count,[2],6 of 6
CC1CCCCN1CC(Cl)(Cl)Cl (configuration not stated),survivor count,[5],0 of 6
O=C(OCCN1CCCCC1)C(O)C1CCCCC1 (configuration not stated),survivor count,[6],6 of 6
NC(=S)N/N=C(\c1ccccc1)c1cccc2ccccc12,survivor count,"dose: 100.0 mg/kg/injection, schedule: Q01DX009 (ip), vehicle: Klucel (hydroxypropylcellulose) (HPC)",0 of 6
same,survivor count,[10],1 of 3
same,survivor count,[11],0 of 3
O=C(CNC(=O)C(CSCc1ccccc1)NC(=O)OCc1ccccc1)OCc1ccccc1 (configuration not stated),survivor count,[3],6 of 6
COc1c2c(cc3c1C(Cl)N(C)CC3)OCO2 (configuration not stated),survivor count,"dose: 100.0 mg/kg/injection, schedule: Q01DX009 (ip), vehicle: saline",2 of 6
same,survivor count,[4],3 of 6
same,survivor count,[6],0 of 6
NC1=NCCS1,survivor count,"dose: 200.0 mg/kg/injection, schedule: Q04DX002 (ip), vehicle: saline",0 of 3
same,survivor count,"dose: 400.0 mg/kg/injection, schedule: Q04DX002 (ip), vehicle: saline",0 of 3
O=NC1C(Cl)C2CC1C1C(Br)C(Br)CC21 (configuration not stated),survivor count,"dose: 225.0 mg/kg/injection, schedule: Q01DX009 (ip), vehicle: saline",1 of 6
CCCCCCCOCc1ccccc1,T/C,[4],126 % of control
Cc1ccccc1CC1c2[nH]c3ccccc3c2CCN1C (configuration not stated),survivor count,[1],1 of 6
COc1cc(C=Nc2cccc(C(=O)O)c2)ccc1N(CCCl)CCCl,survivor count,"dose: 100.0 mg/kg/injection, schedule: Q01DX001 (ip), vehicle: carboxymethylcellulose (CMC)",1 of 4
same,survivor count,"dose: 200.0 mg/kg/injection, schedule: Q01DX001 (ip), vehicle: carboxymethylcellulose (CMC)",0 of 4
same,survivor count,"dose: 400.0 mg/kg/injection, schedule: Q01DX001 (ip), vehicle: carboxymethylcellulose (CMC)",0 of 4
Clc1cc[c]([Sn]([O][Sn]([c]2ccc(Cl)cc2)([c]2ccc(Cl)cc2)[c]2ccc(Cl)cc2)([c]2ccc(Cl)cc2)[c]2ccc(Cl)cc2)cc1,survivor count,[9],1 of 3
same,survivor count,[10],0 of 3
same,survivor count,[11],0 of 3
O=Cc1nccc2c1[nH]c1ccccc12,survivor count,[7],4 of 6
same,survivor count,[8],3 of 6
CC(C)(N)Cc1ccc(Cl)cc1,survivor count,[6],0 of 4
